# Source: patent publication US20140037650A1 (UNIVERSITY OF CHICAGO, published 2014)
# Sequences of proteins named here, by UniProt entry; tags and fusion partners are left off. A change or cut given only in a name is not applied to a line headed by its entry.
# UniProt P69905: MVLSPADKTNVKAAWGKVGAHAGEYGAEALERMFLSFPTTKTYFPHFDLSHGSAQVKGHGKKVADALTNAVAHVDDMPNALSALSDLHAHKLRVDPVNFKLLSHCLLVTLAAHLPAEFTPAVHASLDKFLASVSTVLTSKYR
# UniProt A5IS15: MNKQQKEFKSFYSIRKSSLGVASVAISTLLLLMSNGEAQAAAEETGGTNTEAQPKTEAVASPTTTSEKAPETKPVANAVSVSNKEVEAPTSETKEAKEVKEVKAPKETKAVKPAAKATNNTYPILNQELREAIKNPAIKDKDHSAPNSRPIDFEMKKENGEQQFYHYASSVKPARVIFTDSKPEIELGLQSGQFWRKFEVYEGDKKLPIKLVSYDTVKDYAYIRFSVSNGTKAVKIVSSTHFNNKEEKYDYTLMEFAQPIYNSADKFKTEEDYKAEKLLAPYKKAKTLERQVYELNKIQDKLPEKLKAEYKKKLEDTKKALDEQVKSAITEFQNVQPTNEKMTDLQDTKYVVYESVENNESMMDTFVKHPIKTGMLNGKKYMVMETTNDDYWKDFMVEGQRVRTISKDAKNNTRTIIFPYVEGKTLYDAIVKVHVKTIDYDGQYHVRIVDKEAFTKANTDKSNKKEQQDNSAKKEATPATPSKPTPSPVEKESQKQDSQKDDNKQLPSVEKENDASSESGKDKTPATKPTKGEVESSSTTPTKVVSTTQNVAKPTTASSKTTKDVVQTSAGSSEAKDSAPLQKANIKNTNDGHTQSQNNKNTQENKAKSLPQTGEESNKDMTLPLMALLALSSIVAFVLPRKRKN
# No constants are given. Whether binding was seen depends on the method and setting. Some binding calls cover weakened binding; strength is not graded here.
# Molecular target: hemoglobin (human) (UniProt P69905)
# Assay: SPR, His6-tagged protein on NTA chip
substance,measurement,value
Poly-histidine tagged IsdB (from UniProt A5IS15 41-613),binding,binds
